Data as given in the supplement of paper PMC11006884.
Only a part is listed here, and it is no random draw.

Amino acid sequences for entries named in this document (tags omitted). A change or cut given only in a name is not applied to a line headed by its entry.
UniProt O75616: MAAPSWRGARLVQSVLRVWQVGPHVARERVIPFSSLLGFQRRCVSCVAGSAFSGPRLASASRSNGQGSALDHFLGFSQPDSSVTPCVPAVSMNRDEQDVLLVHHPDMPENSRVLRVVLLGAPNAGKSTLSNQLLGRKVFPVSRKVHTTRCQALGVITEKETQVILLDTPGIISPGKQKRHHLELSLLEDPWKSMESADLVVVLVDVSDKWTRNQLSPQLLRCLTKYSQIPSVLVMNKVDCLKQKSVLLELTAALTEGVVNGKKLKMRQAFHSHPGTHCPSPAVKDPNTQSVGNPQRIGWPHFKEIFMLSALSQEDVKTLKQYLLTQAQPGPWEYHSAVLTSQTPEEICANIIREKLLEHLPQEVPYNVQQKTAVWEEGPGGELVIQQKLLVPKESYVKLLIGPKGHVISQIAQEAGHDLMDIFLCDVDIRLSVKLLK
UniProt O75116: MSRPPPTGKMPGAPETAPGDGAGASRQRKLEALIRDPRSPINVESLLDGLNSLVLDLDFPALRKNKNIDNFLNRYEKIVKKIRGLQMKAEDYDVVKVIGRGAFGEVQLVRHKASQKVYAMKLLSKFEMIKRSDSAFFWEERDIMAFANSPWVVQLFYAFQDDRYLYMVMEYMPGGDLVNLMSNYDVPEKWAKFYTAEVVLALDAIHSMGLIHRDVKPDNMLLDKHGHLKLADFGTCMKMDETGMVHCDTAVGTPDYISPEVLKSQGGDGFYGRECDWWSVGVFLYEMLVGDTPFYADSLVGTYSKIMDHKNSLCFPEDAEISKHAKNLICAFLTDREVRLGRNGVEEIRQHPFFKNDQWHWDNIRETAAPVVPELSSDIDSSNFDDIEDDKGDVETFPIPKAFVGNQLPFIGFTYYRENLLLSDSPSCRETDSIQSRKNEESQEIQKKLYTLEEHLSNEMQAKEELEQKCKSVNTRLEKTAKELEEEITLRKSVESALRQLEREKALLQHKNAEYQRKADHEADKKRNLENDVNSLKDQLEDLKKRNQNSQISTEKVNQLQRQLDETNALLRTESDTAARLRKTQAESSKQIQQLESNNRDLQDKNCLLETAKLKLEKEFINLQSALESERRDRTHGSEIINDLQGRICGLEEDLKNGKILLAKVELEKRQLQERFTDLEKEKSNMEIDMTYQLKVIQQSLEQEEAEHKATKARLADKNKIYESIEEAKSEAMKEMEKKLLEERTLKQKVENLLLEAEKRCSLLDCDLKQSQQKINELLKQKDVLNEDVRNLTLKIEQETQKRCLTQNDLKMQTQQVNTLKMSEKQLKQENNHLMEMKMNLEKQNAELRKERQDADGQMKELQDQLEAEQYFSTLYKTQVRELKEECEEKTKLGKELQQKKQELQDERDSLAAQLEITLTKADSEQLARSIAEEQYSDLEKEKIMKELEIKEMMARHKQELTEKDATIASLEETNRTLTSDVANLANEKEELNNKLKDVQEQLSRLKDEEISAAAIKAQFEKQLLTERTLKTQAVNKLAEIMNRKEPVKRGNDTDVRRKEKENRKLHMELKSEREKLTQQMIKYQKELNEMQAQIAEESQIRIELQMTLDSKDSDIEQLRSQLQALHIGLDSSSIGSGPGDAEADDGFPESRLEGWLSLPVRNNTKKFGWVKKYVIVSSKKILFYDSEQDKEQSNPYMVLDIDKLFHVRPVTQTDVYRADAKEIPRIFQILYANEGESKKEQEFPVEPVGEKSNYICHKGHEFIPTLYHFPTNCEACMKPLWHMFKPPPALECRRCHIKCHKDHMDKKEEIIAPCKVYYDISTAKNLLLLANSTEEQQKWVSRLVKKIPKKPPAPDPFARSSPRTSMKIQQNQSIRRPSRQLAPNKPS
UniProt O76031, whole entry, looked up: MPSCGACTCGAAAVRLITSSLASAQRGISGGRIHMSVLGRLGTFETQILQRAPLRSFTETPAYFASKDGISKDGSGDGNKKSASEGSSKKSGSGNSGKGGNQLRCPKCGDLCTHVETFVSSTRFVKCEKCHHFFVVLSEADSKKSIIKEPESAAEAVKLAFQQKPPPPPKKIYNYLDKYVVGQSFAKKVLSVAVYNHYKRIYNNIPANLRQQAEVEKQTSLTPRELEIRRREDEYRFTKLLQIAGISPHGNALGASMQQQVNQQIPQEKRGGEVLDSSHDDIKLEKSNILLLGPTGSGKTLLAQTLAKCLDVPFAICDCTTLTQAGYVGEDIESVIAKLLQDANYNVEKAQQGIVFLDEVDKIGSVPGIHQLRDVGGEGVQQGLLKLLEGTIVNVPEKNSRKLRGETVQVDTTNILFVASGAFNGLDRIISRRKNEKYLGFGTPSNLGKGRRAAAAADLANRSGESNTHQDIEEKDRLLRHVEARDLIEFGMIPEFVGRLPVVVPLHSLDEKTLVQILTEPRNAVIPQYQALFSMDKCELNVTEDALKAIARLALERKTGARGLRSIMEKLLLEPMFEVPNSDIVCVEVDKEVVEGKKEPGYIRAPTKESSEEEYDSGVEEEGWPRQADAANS
UniProt O75192: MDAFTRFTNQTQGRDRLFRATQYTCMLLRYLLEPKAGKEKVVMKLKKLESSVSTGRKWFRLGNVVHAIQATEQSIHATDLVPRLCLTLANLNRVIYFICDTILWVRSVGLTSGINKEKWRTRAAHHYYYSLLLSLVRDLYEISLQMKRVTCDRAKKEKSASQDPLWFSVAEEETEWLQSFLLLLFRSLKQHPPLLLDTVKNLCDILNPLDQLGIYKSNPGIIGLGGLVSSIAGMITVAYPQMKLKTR
UniProt O60488: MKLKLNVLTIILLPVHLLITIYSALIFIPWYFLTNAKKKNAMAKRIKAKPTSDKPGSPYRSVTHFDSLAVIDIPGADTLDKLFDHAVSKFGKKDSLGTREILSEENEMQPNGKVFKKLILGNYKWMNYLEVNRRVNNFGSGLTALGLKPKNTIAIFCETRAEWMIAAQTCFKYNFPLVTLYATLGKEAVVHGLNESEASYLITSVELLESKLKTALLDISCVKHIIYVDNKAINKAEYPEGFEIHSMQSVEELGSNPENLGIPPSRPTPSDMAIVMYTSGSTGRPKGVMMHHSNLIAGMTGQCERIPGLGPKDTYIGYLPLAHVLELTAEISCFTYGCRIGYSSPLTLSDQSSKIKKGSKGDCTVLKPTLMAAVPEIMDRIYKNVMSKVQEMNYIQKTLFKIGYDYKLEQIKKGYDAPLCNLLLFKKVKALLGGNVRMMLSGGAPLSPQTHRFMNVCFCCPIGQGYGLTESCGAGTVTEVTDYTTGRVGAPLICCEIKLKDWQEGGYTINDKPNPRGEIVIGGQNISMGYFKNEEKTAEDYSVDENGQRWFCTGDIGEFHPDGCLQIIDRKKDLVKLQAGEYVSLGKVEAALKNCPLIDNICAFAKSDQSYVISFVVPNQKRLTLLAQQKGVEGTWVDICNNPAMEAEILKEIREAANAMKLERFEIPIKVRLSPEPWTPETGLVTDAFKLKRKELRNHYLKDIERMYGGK
UniProt O60313: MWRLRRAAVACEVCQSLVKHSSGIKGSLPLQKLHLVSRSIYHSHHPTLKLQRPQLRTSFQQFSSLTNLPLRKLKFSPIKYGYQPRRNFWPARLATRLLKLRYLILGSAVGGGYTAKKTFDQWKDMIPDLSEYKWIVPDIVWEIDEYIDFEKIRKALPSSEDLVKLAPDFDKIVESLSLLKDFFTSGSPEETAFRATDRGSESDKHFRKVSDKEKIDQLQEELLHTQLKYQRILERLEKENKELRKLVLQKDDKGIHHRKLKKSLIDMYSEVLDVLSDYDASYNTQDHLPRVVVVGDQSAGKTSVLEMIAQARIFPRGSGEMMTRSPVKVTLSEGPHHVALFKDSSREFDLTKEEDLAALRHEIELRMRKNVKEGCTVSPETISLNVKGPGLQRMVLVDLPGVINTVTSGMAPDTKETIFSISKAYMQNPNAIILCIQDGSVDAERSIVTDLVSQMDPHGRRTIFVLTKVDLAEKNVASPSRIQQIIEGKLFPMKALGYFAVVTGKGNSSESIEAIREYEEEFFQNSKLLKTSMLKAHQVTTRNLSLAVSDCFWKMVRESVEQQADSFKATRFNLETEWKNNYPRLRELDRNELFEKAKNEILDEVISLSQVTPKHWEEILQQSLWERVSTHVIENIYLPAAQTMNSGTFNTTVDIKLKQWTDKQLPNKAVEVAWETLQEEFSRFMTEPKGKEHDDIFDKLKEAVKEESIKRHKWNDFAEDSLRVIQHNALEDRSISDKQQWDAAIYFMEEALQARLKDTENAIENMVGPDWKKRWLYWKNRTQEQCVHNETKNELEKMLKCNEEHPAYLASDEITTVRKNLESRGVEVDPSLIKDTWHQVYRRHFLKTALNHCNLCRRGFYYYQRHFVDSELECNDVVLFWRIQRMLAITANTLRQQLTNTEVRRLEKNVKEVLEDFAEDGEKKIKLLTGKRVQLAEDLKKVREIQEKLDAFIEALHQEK
UniProt O60343: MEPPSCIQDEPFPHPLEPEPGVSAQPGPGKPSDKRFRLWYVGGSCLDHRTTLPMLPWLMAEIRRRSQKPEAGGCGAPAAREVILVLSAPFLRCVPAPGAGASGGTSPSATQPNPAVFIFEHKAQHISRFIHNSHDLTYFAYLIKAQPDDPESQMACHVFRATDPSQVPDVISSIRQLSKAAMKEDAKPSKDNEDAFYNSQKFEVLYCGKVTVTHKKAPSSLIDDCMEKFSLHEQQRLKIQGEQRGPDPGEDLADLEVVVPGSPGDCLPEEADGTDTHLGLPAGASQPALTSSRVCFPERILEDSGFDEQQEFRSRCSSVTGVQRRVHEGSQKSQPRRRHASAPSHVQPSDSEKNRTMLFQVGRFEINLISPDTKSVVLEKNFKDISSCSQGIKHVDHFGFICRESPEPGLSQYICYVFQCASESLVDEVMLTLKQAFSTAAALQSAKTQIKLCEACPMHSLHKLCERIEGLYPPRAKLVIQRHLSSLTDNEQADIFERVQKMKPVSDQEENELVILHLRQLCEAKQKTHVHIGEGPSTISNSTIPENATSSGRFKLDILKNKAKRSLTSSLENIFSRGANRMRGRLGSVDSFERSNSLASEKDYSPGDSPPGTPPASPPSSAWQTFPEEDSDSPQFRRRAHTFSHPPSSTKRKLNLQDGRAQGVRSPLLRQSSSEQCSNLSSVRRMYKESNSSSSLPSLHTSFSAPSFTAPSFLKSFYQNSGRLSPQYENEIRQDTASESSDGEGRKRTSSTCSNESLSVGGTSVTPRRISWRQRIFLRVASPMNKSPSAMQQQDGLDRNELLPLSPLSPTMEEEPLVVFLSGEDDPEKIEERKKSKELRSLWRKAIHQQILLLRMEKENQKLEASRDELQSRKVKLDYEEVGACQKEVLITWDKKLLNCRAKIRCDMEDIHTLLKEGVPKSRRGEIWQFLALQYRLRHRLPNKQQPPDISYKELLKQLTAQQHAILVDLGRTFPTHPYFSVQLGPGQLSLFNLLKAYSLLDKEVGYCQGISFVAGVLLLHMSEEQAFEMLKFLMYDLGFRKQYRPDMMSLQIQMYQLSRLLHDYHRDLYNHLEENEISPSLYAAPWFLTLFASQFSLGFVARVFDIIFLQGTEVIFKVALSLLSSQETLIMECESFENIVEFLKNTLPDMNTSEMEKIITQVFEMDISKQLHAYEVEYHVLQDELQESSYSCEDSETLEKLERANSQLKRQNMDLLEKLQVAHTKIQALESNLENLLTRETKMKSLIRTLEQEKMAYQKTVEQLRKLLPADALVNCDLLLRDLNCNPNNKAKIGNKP
UniProt O60502: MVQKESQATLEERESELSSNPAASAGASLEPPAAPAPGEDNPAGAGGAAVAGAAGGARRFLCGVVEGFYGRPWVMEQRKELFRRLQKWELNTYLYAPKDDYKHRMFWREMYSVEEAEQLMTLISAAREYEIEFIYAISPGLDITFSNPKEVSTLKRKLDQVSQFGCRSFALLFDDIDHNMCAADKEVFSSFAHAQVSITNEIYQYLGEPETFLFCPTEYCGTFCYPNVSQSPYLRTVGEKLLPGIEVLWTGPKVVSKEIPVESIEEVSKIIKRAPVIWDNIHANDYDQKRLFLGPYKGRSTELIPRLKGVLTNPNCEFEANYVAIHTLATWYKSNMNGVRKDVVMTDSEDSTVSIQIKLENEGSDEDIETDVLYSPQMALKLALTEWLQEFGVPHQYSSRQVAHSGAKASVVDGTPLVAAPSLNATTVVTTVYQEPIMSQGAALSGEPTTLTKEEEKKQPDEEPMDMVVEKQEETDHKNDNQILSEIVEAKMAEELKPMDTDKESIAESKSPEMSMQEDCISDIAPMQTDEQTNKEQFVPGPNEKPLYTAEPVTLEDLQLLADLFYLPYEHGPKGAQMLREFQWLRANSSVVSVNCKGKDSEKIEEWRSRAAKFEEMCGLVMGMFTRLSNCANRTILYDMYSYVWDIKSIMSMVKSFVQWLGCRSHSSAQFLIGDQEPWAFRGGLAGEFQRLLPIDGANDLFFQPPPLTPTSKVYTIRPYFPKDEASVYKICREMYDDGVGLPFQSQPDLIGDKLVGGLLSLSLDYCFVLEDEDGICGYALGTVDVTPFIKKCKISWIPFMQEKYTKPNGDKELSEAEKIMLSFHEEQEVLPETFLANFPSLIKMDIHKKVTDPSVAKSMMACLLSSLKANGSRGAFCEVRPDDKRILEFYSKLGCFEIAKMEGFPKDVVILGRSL

compound: COC(=O)C#Cc1ccccc1 [methyl 3-phenylpropiolate]; test: log2 ratio of iodoacetamide-alkyne labeling of the cysteine site, DMSO over compound (competition); higher = stronger covalent engagement of the cysteine by the compound, active = 1 or more; settings: 500 µM; treatment time 1 h; system: HEK293T cell lysate
How it was run: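 After 1 h at ambient temperature with vehicle or electrophile (500 µM), HEK293T lysate (2 mg/mL) was labelled for 1 h with iodoacetamide alkyne and clicked to sCIP-TMT reagents. Pooled samples were trypsin-digested overnight at 37 °C, streptavidin-enriched, acid-eluted and analysed by Orbitrap Eclipse LC-MS/MS with FAIMS, then quantified in FragPipe over three replicates with duplicate channels. A cysteine's log2 competition ratio is its mean control-channel over mean compound-channel reporter intensity. Cysteines quantified in only one replicate were not included.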

log2 ratio of iodoacetamide-alkyne labeling, inactive:
LRCH4 C571 (UniProt O75427) -0.25
ERAL1 C425 (UniProt O75616) 0.325
ERAL1 C348 (UniProt O75616) 0.478
PQBP1 C60 (UniProt O60828) -0.0484
MED24 C336 (UniProt O75448) -0.0715
ROCK2 C247 (UniProt O75116) -0.179
OFD1 C581 (UniProt O75665) 0.478
SRGAP2 C98 (UniProt O75044) 0.331
CPNE3 C506 (UniProt O75131) -0.262
DNAJB6 C275 (UniProt O75190) 0.372
EXOC3 C465 (UniProt O60645) 0.271
CSDE1 C506 (UniProt O75534) 0.266
LRCH4 C105 (UniProt O75427) 0.43
DNAJC13 C2181 (UniProt O75165) 0.124
UniProt O60664_C39 0.0449
NUP155 C974 (UniProt O75694) 0.209
PSMD10 C4 (UniProt O75832) 0.241
FZD6 C615 (UniProt O60353) 0.416
CLPX C586 (UniProt O76031) -0.0174
EIF3G C139 (UniProt O75821) 0.259
ROCK2 C428 (UniProt O75116) 0.539
SF3B1 C1035 (UniProt O75533) 0.375
UniProt O75521_C282 0.0564
UniProt O75192_C203 0.0851
ACSL4 C420 (UniProt O60488) 0.453
ANKRD17 C1622 (UniProt O75179) 0.196
ZW10 C568 (UniProt O43264) 0.37
OPA1 C786 (UniProt O60313) 0.281
FLNB C2115 (UniProt O75369) 0.51
MPDZ C1794 (UniProt O75970) 0.137
TBC1D4 C6 (UniProt O60343) 0.373
UniProt O43303_C535 0.837
SMARCA5 C259 (UniProt O60264) 0.509
UniProt O60232_C152 0.322
UniProt O43432_C638 0.00803
UniProt O60502_C896 0.404
RNF40 C950 (UniProt O75150) 0.129

Pulled one by one from above:
log2 ratio of iodoacetamide-alkyne labeling, inactive:
ERAL1 C348 (UniProt O75616) 0.478
ANKRD17 C1622 (UniProt O75179) 0.196
